Consider 40 compounds from PubChem BioAssay AID493014 (National Center for Advancing Translational Sciences (NCATS), 2011).

The nature of the test: qHTS Assay to Find Inhibitors of Chronic Active B-Cell Receptor Signaling. Particulars: ABC-DLBCL IkBa-CBG/CBR reporter, luminescence ratio (green luciferase fused to IkBa over red control in TMD8 lymphoma cells), 4 h. Summed up: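 TMD8 ABC-DLBCL cells carrying doxycycline-inducible green luciferase fused to IkappaBalpha plus unfused red luciferase were exposed to compounds (up to 46 uM) for 4 hrs at 37C. Activity came from the overlap-corrected green/red luminescence ratio.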
In general terms: In qHTS, concentration-response curves come from the screen itself.

The mark [1] stands for this setting: measured here: CBR red luminescence, cell number.

This is one part of the list. These are further read-outs of the screen, such as a control signal, another cell line or another target. No call is given for them. The list favours compounds with an active or inconclusive main result. Words in brackets tell the shape of the fitted curve; partial curves, single points and poor fits give uncertain potencies.

As for `Cn1c(=O)c(C(=O)Nc2ccccn2)c(O)c2ccccc21`, the AC50 – broadly, the concentration at which the activity in the assay is half-maximal – under setting [1] was 7.94 µM [falling, partial curve, poor fit]. On the same count and under the same terms, in the case of `Cc1cc(C(C)(C)C)oc1C(=O)N(CC(=O)NC1CCCC1)c1c(C)cccc1C` it was 14.6 µM [falling, single point]; in that of `CCc1ccc(-c2cc(C(=O)NN3CCOCC3)c3ccccc3n2)s1`, 11.2 µM [rising, partial curve, poor fit]; in that of `O=C(COc1ccc([N+](=O)[O-])cc1)N1CCc2ccccc2C1`, 20 µM [rising, single point].

On to `OCCCNc1nc(-c2ccc(Cl)cc2)nnc1-c1ccc(Br)cc1`, for which the AC50 under setting [1] was 14.6 µM [falling, partial curve]. `O=C(O)c1ccc(-c2nc3scc(-c4ccccc4)c3c(=O)[nH]2)cc1`: the AC50 under setting [1] is 2 µM [falling, full curve, poor fit]. `Cc1ccc(C(C)C)c(OCc2nn(CC(=O)c3ccc(OC(F)F)cc3)c3[n+]2CCCCC3)c1`: the AC50 under setting [1] is 12.6 µM [falling, partial curve, poor fit]. With `Cc1ccc(NC2=CC(=O)CC(c3ccccc3)C2)cc1` (stereo not given), the AC50 under setting [1] was 13 µM [rising, partial curve, poor fit]. As to `COc1ccc(/C=C/C(=O)ONC2=NCCCCC2)cc1OC`, the AC50 under setting [1] was 35.5 µM [rising, single point]. Same read-out and setting: with `Cc1sc2ncnc(N3CCC(C(=O)Nc4nc(-c5ccc(F)cc5)cs4)CC3)c2c1C` the figure was 5.8 µM [rising, full curve]; with `COC(=O)c1sc(-c2ccc(Cl)cc2)cc1N`, 0.316 µM [rising, full curve, poor fit]; with `COc1c(C)cc(C(=O)C2CCCN(C(=O)c3cc(C)n(C)n3)C2)cc1C` (stereo not given), 4.47 µM [rising, full curve, poor fit].

As to `CC(=O)C1(C)N(O)C(C)(C)C(c2cccs2)=[N+]1[O-]` (stereo not given), under setting [1], the AC50 was 3.55 µM [falling, partial curve, poor fit]. Still for that read-out and setting: with `COc1ccccc1OCCOc1ccc(/C=N/n2cnnc2)cc1` the figure was 20.6 µM [rising, single point].

As to `CC(C)c1cc(C(=O)NC2CCCCC2)no1`, under setting [1], the AC50 is 8.2 µM [falling, partial curve].

In the case of `CCCCNC(=O)CSc1nc2cc3c(cc2c(=O)n1CCCC(=O)NCCc1ccc(OC)c(OC)c1)OCO3`, under setting [1], the AC50 was 0.282 µM [rising, full curve, poor fit]. The same measure, in the same setting: in the case of `Cc1ccc(S(=O)(=O)Nc2c(C)nc3nc(C)[nH]n3c2=O)cc1` it was 0.447 µM [falling, partial curve, poor fit]. The same measure, in the same setting: with `CCc1ccc2oc(=O)cc(CN3CCN(c4ccc(F)cc4)CC3)c2c1` the figure was 14.1 µM [falling, partial curve, poor fit].

Consider `CCN(CC)S(=O)(=O)c1ccc2[nH]cc(C(=O)NCCc3ccc(OC)c(OC)c3)c(=O)c2c1`, for which the AC50 under setting [1] is 2.31 µM [rising, partial curve, poor fit]. On to `O=C(COC(=O)CCC(=O)c1ccc(Cl)cc1)NCc1ccco1`, for which the AC50 under setting [1] is 35.5 µM [falling, single point]. Still for that read-out and setting: with `C[N+](C)(C)CC(=O)N1CCN(c2ccc3ccccc3n2)CC1` the figure was 17.8 µM [rising, single point].

For `Cn1c(CCN2CCCCC2)nc2cc(NC(=O)C3CCCCC3)ccc21`, the AC50 under setting [1] was 14.1 µM [falling, partial curve, poor fit]. Still for that read-out and setting: in the case of `COC(=O)c1ccccc1NC(=O)c1ccc(COc2cccc3ccccc23)o1` it was 4.61 µM [falling, full curve, poor fit]; in that of `COc1cc(/C=C(\C#N)c2nc3ccccc3[nH]2)ccc1Oc1ccc([N+](=O)[O-])cn1`, 3.16 µM [falling, partial curve]. Consider `CS(=O)(=O)c1ccc(S(=O)CC(=O)Oc2ccc(Cl)cc2)c([N+](=O)[O-])c1` (stereo not given), for which the AC50 (measured here: IkBa-CBG green luminescence) is 35.5 µM [falling, partial curve, poor fit].

On to `CCN(CC)c1ccc(/C=N/NC(=O)c2cc(C)nc3ccccc23)cc1`, for which the AC50 under setting [1] is 11.2 µM [rising, partial curve, poor fit].

For `COc1ccc(S(=O)(=O)N2CCC(C(=O)N(C)Cc3ccc(C)o3)CC2)cc1OC`, the AC50 under setting [1] was 18.4 µM [rising, partial curve, poor fit].

As to `O=S(=O)(c1cccs1)N1CCN(S(=O)(=O)c2cccs2)CC1`, the AC50 under setting [1] was 11.2 µM [rising, single point]. For `Cc1cccc(C(=O)Nc2ccc(O)cc2C(=O)O)c1`, the half-maximal activity concentration (AC50) under setting [1] is 0.316 µM [falling, full curve].

Take `Cc1cccc(C(=O)NCC(=O)NC(C)CCc2ccccc2)c1` (stereo not given): the concentration at half-maximal activity (AC50) under setting [1] is 20 µM [falling, single point]. Still for that read-out and setting: with `COc1ccc(C(=O)O/N=C(\N)c2ccccn2)c(OC)c1` the figure was 0.398 µM [falling, full curve]; with `C=CC(=O)Nc1ccc(N(C)c2ccnc(Nc3ccc(N4CCN(C)CC4)cc3)n2)cc1`, 16.4 µM [falling, single point]. Same read-out and setting: in the case of `CN(CC(=O)Nc1cccc(F)c1)C(=O)CNC(=O)Cc1cccc2ccccc12` it was 0.58 µM [rising, full curve, poor fit]; in that of `CC(=O)NC(=S)Nc1sc2c(c1C(N)=O)CCC(C)C2` (stereo not given), 35.5 µM [rising, single point]; in that of `Cc1cc(=O)oc2cc(OCc3ccc(C(=O)OCC(=O)NC4CCS(=O)(=O)C4)cc3)ccc12` (stereo not given), 7.08 µM [falling, full curve, poor fit]. Same read-out and setting: in the case of `COC(=O)CNC(=O)CSc1nc(N)cc(=O)[nH]1` it was 0.82 µM [rising, partial curve, poor fit]; in that of `Cc1ccc(CNC(=O)Nc2ccc(Cl)cc2)cc1`, 0.398 µM [rising, full curve, poor fit]; in that of `Cc1ccc(NS(=O)(=O)c2ccc(N/N=C/c3ccncc3)c([N+](=O)[O-])c2)c(C)c1`, 20.6 µM [rising, single point]. On to `COc1cc(/C=C2\NC(=S)NC2=O)ccc1OCc1cccc(C(=O)O)c1`, for which the AC50 under setting [1] was 10 µM [falling, partial curve]. For `CC(C(=O)NCc1ccccc1)N(Cc1ccccc1Cl)C(=O)c1snc(C(N)=O)c1N` (stereo not given), the AC50 under setting [1] is 0.891 µM [falling, full curve].
